Results on 32 compounds are retold here after the supplement of paper PMC12462457.

Counter-ions that a name gives are not always drawn. ± gives the standard deviation of the averaged measurements. This is one part of the list. This data set is noisy: repeats of one test often differ as much as different tests do.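 Imaging of DAPI-stained nuclei was used to count cells; those without phalloidin-stained cytoplasm were treated as dead and excluded. Every well's count was divided by the median of same-plate vehicle wells, then averaged across two replicate plates.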

This experiment relates to OVCAR8. Nature of the experiment: cell count relative to DMSO vehicle (fold change); higher = more surviving senescent cells (less killing). The following applies: senescence inducer: cisplatin 10 µM 48 h, then 6 d recovery (CP senescent), exposure time 24 h.

As for `N#Cc1ccc(-c2c(-c3ncn[nH]3)sc(N3CCOCC3)c2C#N)c(F)c1`, the cell count came out at 0.9845 ± 0.0035 (compound dose 1 µM) and 0.546 ± 0.0092 (compound dose 5 µM).

For `COc1cc2c(cc1OC)[C@@H](Cc1ccc(Oc3cc(C[C@@H]4c5cc(OC)c(OC)cc5CCN4C)ccc3O)cc1)N(C)CC2` [Dauricine], the cell count was found to be 1.17 ± 0.11 (compound dose 1 µM) and 0.7055 ± 0.0021 (compound dose 5 µM).

Consider `CC(=O)O[C@H](CC=C(C)C)C1=CC(=O)c2c(O)ccc(O)c2C1=O` [Acetylshikonin], for which the cell count stood at 1.36 ± 0.36 (compound dose 1 µM) and 0.859 ± 0.093 (compound dose 5 µM).

`COc1ccc(C[C@@H]2c3cc(Oc4cc(C[C@@H]5c6cc(O)c(OC)cc6CCN5C)ccc4O)c(OC)cc3CCN2C)cc1` [Isoliensinine]: the cell count is, setting by setting: (compound dose 1 µM) 1.0675 ± 0.00071; (compound dose 5 µM) 0.737 ± 0.29.

In the case of `OCCN1CCN(CCCN2c3ccccc3Sc3ccc(Cl)cc32)CC1`, the cell count was 0.811 ± 0.079 (compound dose 1 µM) and 0.72 ± 0.013 (compound dose 5 µM).

In turn, `O=C(c1ccc(C(=O)N2CCC(N3CCCC3)CC2)c(Nc2ccccc2)c1)N1CCC(N2CCCC2)CC1` gave a cell count (compound dose 1 µM) of 0.8345 ± 0.0021 and a cell count (compound dose 5 µM) of 0.828 ± 0.081.

Regarding `CCC[C@H](N[C@@H](C)C(=O)N1[C@H](C(=O)O)C[C@@H]2CCCC[C@@H]21)C(=O)OCC` [Perindopril (erbumine)], the cell count by setting is: (compound dose 1 µM) 1.06 ± 0.045; (compound dose 5 µM) 0.956 ± 0.41.

Regarding `O=c1c(-c2ccc(O)cc2)coc2cc(O[C@@H]3O[C@H](CO)[C@@H](O)[C@H](O)[C@H]3O)cc(O)c12` [Genistin], the cell count reads like this: (compound dose 1 µM) 1.07 ± 0.13; (compound dose 5 µM) 0.87 ± 0.2.

Consider `O=c1c2ccccc2nc(/C=C/c2cccnc2)n1Cc1ccccc1` [RAD51 Inhibitor B02], for which the cell count stood at 1.18 ± 0.012 (compound dose 1 µM) and 0.771 ± 0.023 (compound dose 5 µM).

Turning to `COC1=CC(c2cc3ccccc3[nH]2)=N/C1=C\c1[nH]c(C)cc1C` [Obatoclax (Mesylate)], the cell count (compound dose 1 µM) came to 0.54 ± 0.019 and the cell count (compound dose 5 µM) is 0.305 ± 0.14.

The compound `COC(=O)C1=CO[C@@H](O[C@@H]2O[C@H](CO)[C@@H](O)[C@H](O)[C@H]2O)[C@@H]2[C@@H](C)[C@@H](O)C[C@H]12` [Loganin] registered a cell count (compound dose 1 µM) of 0.967 ± 0.098 and a cell count (compound dose 5 µM) of 0.846 ± 0.081.

On to `C[C@@H]1C[C@H](N)C[C@H](c2ccncc2NC(=O)c2ccc(F)c(-c3c(F)cccc3F)n2)C1` [PIM-447 (dihydrochloride)], for which the cell count (compound dose 1 µM) was 0.844 ± 0.041 and the cell count (compound dose 5 µM) was 0.724 ± 0.03.

As for `CCCC(=O)Nc1ncnc2c1ncn2[C@@H]1O[C@@H]2COP(=O)(O)O[C@H]2[C@H]1OC(=O)CCC` [Bucladesine (calcium)], the cell count by setting is: (compound dose 1 µM) 0.916 ± 0.17; (compound dose 5 µM) 0.812 ± 0.26.

On to `COc1cc(OC)c(C=C2C(=O)Nc3ccccc32)c(OC)c1`, for which the cell count runs as follows: (compound dose 1 µM) 1.02 ± 0.13; (compound dose 5 µM) 1.07 ± 0.011.

As for `CO[C@@H]1[C@@H](OC(N)=O)[C@@H](O)[C@H](Oc2ccc3c(O)c(NC(=O)c4ccc(O)c(CC=C(C)C)c4)c(=O)oc3c2C)OC1(C)C` [Novobiocin (Sodium)], the cell count was 0.986 ± 0.2 (compound dose 1 µM) and 0.975 ± 0.059 (compound dose 5 µM).

On to `O=Nc1c(-c2c(O)[nH]c3cc(Br)ccc23)[nH]c2ccccc12` [GSK 3 Inhibitor IX], for which the cell count by setting is: (compound dose 1 µM) 0.597 ± 0.03; (compound dose 5 µM) 0.402 ± 0.015.

With `CN(NC(=O)CC(=O)NN(C)C(=S)c1ccccc1)C(=S)c1ccccc1` [Elesclomol], the cell count runs as follows: (compound dose 1 µM) 0.261 ± 0.1; (compound dose 5 µM) 0.282 ± 0.22.

As to `Clc1ccc(-c2csc(NN=C3CCCC3)n2)cc1`, the cell count runs as follows: (compound dose 1 µM) 0.889 ± 0.15; (compound dose 5 µM) 0.879 ± 0.018.

On to `COc1cc2c(cc1OC)[C@@H](Cc1ccc(O)c(Oc3cc4c(cc3OC)CCN(C)[C@@H]4Cc3ccc(O)cc3)c1)N(C)CC2` [Liensinine], for which the cell count by setting is: (compound dose 1 µM) 0.695 ± 0.33; (compound dose 5 µM) 0.74 ± 0.061.

In the case of `Cc1ncc([N+](=O)[O-])n1CCO` [Metronidazole], the cell count was found to be 1.27 ± 0.12 (compound dose 1 µM) and 1.02 ± 0.24 (compound dose 5 µM).

For the compound `CC(C)=CCc1cc(-c2coc3cc(O)ccc3c2=O)ccc1O` [Neobavaisoflavone], the cell count was 0.935 ± 0.033 (compound dose 1 µM) and 0.457 ± 0.18 (compound dose 5 µM).

As for `Cc1ccc(-c2c(C#N)c(N)n3c(nc4ccccc43)c2C#N)cc1`, the cell count runs as follows: (compound dose 1 µM) 1.361 ± 0.011; (compound dose 5 µM) 1.2 ± 0.22.

`O=C([O-])c1ccccc1O.[Na+]` [Sodium Salicylate] returned a cell count (compound dose 1 µM) of 1.13 ± 0.25 and a cell count (compound dose 5 µM) of 0.648 ± 0.37.

As to `COc1ccc2[nH]cc(CCNC(C)=O)c2c1`, the cell count (compound dose 1 µM) came out at 0.915 ± 0.19 and the cell count (compound dose 5 µM) was 0.677 ± 0.41.

Turning to `Cc1ccc(C(=O)c2cc(O)c(O)c([N+](=O)[O-])c2)cc1` [Tolcapone], the cell count is, setting by setting: (compound dose 1 µM) 0.819 ± 0.012; (compound dose 5 µM) 0.835 ± 0.026.

As for `C=CC[C@@H]1/C=C(\C)C[C@H](C)C[C@H](OC)[C@H]2O[C@@](O)(C(=O)C(=O)N3CCCC[C@H]3C(=O)O[C@H](/C(C)=C/[C@@H]3CC[C@@H](O)[C@H](OC)C3)[C@H](C)[C@@H](O)CC1=O)[C@H](C)C[C@@H]2OC` [Tacrolimus (monohydrate)], the cell count reads like this: (compound dose 1 µM) 0.917 ± 0.088; (compound dose 5 µM) 0.621 ± 0.13.

For the compound `O=c1c(O)c(-c2cc(O)c(O)c(O)c2)oc2cc(O)cc(O)c12`, the cell count runs as follows: (compound dose 1 µM) 0.801 ± 0.048; (compound dose 5 µM) 0.607 ± 0.23.

With `COc1ccc(-c2cc(=O)c3c(O)cc(O)cc3o2)cc1`, the cell count reads like this: (compound dose 1 µM) 1.13 ± 0.18; (compound dose 5 µM) 1.15 ± 0.064.

On to `Cc1ccc(NC(=O)c2ccc(CN3CCN(C)CC3)cc2)cc1Nc1nc(-c2cccnc2)cs1` [Masitinib (AB1010)], for which the cell count worked out at 0.868 ± 0.16 (compound dose 1 µM) and 0.883 ± 0.27 (compound dose 5 µM).

`O=C(COCC(=O)Nc1ccc(Cl)cc1C(=O)O)Nc1cccc(-c2ccoc2)c1`: the cell count was 0.947 ± 0.15 (compound dose 1 µM) and 1.15 ± 0.12 (compound dose 5 µM).

As for `Cc1ccc(-c2nn(C(C)(C)CNC(=O)c3ccncc3)c3ncnc(N)c23)cc1`, the cell count turned out to be 0.855 ± 0.078 (compound dose 1 µM) and 0.765 ± 0.096 (compound dose 5 µM).

On to `CCO[C@@H]1OC(=O)C[C@@H]1NC(=O)[C@@H]1CCCN1C(=O)[C@@H](NC(=O)c1ccc(N)c(Cl)c1)C(C)(C)C` [Belnacasan], for which the cell count (compound dose 1 µM) was determined as 1.3 ± 0.19 and the cell count (compound dose 5 µM) was 1.17 ± 0.036.
